The other results are listed elsewhere or left out. Potency and affinity values are given separately.
What follows are molecules tested on Pseudomonas aeruginosa. Details: Concentration 20 uM; ASSAY_TEST Inhibition of Bacterial Growth; detection method Absorption (OD600); MEDIA CAMHB; plate type 384well; NBS; CORNING #3640; time 18 hr.

| SMILES | Inhibition [%] |
| --- | --- |
| CCc1nc(NC(C)(C)C)c2cnn(-c3ccccc3)c2n1 | -1.88 |
| O=c1[nH]c(=S)c2nc(S)n(-c3ccccc3)c2[nH]1 | 7.51 |
| Nc1[nH]nc2nc(-c3ccccc3)nc(O)c12 | 1.53 |
| O=C(CC1C=Cc2ccccc2N1C(=O)c1ccccc1)c1ccccc1 (centres undefined) | 25.39 |
| c1ccc(-c2nnc3oc(-c4cccs4)nn23)cc1 | 13.73 |
| CCOP(=O)(OCC)/C(C#N)=C/c1ccc([N+](=O)[O-])cc1 | 22.05 |
| Clc1c(Cl)c(Cl)c2[nH]nnc2c1Cl | 3.68 |
| COc1cc(/N=N/c2cccc(S(N)(=O)=O)c2)c2ccccc2c1N | 26.1 |
| COc1cc(C(=O)C(=O)c2cc(OC)c(O)c(OC)c2)cc(OC)c1O | 9 |
| Cc1cc(O)c(C(C)C)cc1NC(=O)Nc1cccc2ccccc12 | 7.81 |
| O=P(O)(O)c1cc(-c2ccccc2)oc1-c1ccccc1 | 6.31 |
| Cc1nc(NCc2ccccc2)c2cc[nH]c2n1 [ROLODINE] | 4.39 |
| NC(=O)c1ccccc1NC(=O)c1ccccc1Cl | 10.71 |
| COc1ccc(Nc2cc(C)nc(N)n2)cc1 | -8.13 |
| COc1ccc2c3c([nH]c2c1)[C@H]1C[C@H]2[C@H](C[C@@H](O)[C@H](OC)[C@H]2C(=O)O)CN1CC3 | 8.44 |
| CNc1ncnc2c1cnn2C1CCCCO1 (centres undefined) | 17.87 |
| Cc1cc2c(cc1C)NC1=C(O)C(c3cccc(O)c3)OC1=N2 (centres undefined) | 4.58 |
| COc1ccc(C(=O)Oc2cccnc2O)cc1 | -7.26 |
| Oc1ccc(/C=C\c2cnccn2)cc1 | 25.8 |
| COc1cc2c(NCCCCCO)ncnc2c(OC)c1OC | 24.66 |
| O=[N+]([O-])c1cc(-c2cccnc2)[nH]n1 | 10.61 |
| CC1(C)N=C(N)N=C(N)N1c1cccc(CN)c1.CCS(=O)(=O)O | 19.75 |
| Cc1nnc(-n2cccc2)s1 | 2.93 |
| Cn1c(N)c(/N=N/c2ccc(S(N)(=O)=O)cc2)c(=O)n(C)c1=O | 12.52 |
| NC1=NC(c2ccc(Cl)cc2)N(c2ccc(S(N)(=O)=O)cc2)C(N)=N1 (centres undefined) | 15.92 |

Grouped by structure: the compounds so far with nitrogen in an aromatic ring (15)

| SMILES | Inhibition [%] |
| --- | --- |
| CCc1nc(NC(C)(C)C)c2cnn(-c3ccccc3)c2n1 | -1.88 |
| O=c1[nH]c(=S)c2nc(S)n(-c3ccccc3)c2[nH]1 | 7.51 |
| Nc1[nH]nc2nc(-c3ccccc3)nc(O)c12 | 1.53 |
| c1ccc(-c2nnc3oc(-c4cccs4)nn23)cc1 | 13.73 |
| Clc1c(Cl)c(Cl)c2[nH]nnc2c1Cl | 3.68 |
| Cc1nc(NCc2ccccc2)c2cc[nH]c2n1 [ROLODINE] | 4.39 |
| COc1ccc(Nc2cc(C)nc(N)n2)cc1 | -8.13 |
| COc1ccc2c3c([nH]c2c1)[C@H]1C[C@H]2[C@H](C[C@@H](O)[C@H](OC)[C@H]2C(=O)O)CN1CC3 | 8.44 |
| CNc1ncnc2c1cnn2C1CCCCO1 (centres undefined) | 17.87 |
| COc1ccc(C(=O)Oc2cccnc2O)cc1 | -7.26 |
| Oc1ccc(/C=C\c2cnccn2)cc1 | 25.8 |
| COc1cc2c(NCCCCCO)ncnc2c(OC)c1OC | 24.66 |
| O=[N+]([O-])c1cc(-c2cccnc2)[nH]n1 | 10.61 |
| Cc1nnc(-n2cccc2)s1 | 2.93 |
| Cn1c(N)c(/N=N/c2ccc(S(N)(=O)=O)cc2)c(=O)n(C)c1=O | 12.52 |

Reformatted: two of the compounds above
SMILES	Inhibition [%]
Oc1ccc(/C=C\c2cnccn2)cc1	25.8
COc1cc2c(NCCCCCO)ncnc2c(OC)c1OC	24.66

More compounds:

| SMILES | Inhibition [%] |
| --- | --- |
| CSc1nnc(-c2cccs2)[nH]1 | 14.85 |
| C#CCSc1nnnn1-c1ccc(Br)c(C)c1 | 24.75 |
| Cc1ccn(C)c(=N)c1 | 15.16 |
| Nc1n[nH]c(Nc2ccccc2)n1 | 11.15 |
| O=C(O)C1C2OC3C(OC(=O)C31)C2Br (centres undefined) | 8.37 |
| Clc1ccc(/C=C/c2nc(Cl)c(-c3ccc(Cl)cc3)c(Cl)n2)cc1 | 27.09 |
| COc1ccc2c(n1)Sc1nc3ccccc3nc1N2 | 4.87 |
| Cc1nccnc1Sc1ccccc1 | -0.18 |
| [O-][n+]1ccc(CC(O)(C(F)(F)F)C(F)(F)F)cc1 | -7.4 |
| Sc1nc2ccccc2n2cccc12 | -3.39 |
| NNC(=O)CNC(=O)Nc1nnc(S)s1 | -0.41 |
| CN(C)S(=O)(=O)c1ccc(N)c([N+](=O)[O-])c1 | 3.26 |
| CCC(C)N=C(S)Nc1ccccc1 (centres undefined) | 5.43 |
| S=C1SCN(CCc2ccccc2)CN1CCc1ccccc1 | 10.02 |
| O=C(Nc1ccc(Cl)cc1)c1cc2c(cc1O)[nH]c1ccccc12 | -10.65 |
| CCOc1ccc2sc(NS(=O)(=O)c3ccc(N)cc3)nc2c1 | 12.86 |
| O=C1OCC/C1=C\NCCCCCCCCN/C=C1\CCOC1=O | 20.27 |
| CCCCOc1nc2c(c(=O)n(C)c(=O)n2C)n1C | 7 |
| NCc1c(O)ccc2ccccc12 | -10.61 |
| O=c1oc2c(cc1O)oc(=O)c1cc(O)c(O)c(O)c12 | 3.75 |
| Cc1nc(O)c2c3c(sc2n1)CCCC3 | 7.72 |
| CCNc1nn2ccccc2c1/C=C(/C#N)C(=O)OCC | 15.35 |
| COc1ccc(C2=NC(=O)NC2c2ccc(OC)cc2)cc1 (centres undefined) | 2.31 |
| c1cc2c3c(cccc3c1)NC1(CCC3(CC1)Nc1cccc4cccc(c14)N3)N2 | 33.82 |
| O=C(Nc1cccc([N+](=O)[O-])c1)c1ccc2ccccc2c1O | 13.88 |

| SMILES | Inhibition [%] |
| --- | --- |
| Cc1cc2cc3n(c2nn1)N=C(Cl)CC3 | 8.98 |
| Cc1cc(=O)[nH]/c(=N/N=C2/CCCCC2C)[nH]1 (centres undefined) | 14.92 |
| c1ccc(-n2c3ccccc3c3ccccc32)cc1 | 11.31 |
| Oc1ccc(N/C(S)=N/c2ccccc2)cc1 | -9.32 |
| CC(C)(C)c1ccc(OCC(=O)O)cc1 | 13.64 |
| CC12CCC(C(NC(=S)NN)C1=O)C2(C)C (centres undefined) | 8.97 |
| Cc1cnc2c(N)cc(C)c(C)c2c1 | 9.68 |
| O=C(Nc1cccc2ccccc12)c1cc2c(cc1Br)OCO2 | 31.1 |
| Cn1ncc2c(Nc3ccccc3Cl)nc(Cl)nc21 | 5.69 |
| Cc1nc2ccccc2nc1NS(=O)(=O)c1ccc(N)cc1 | -3.19 |
| O=C1c2cc([N+](=O)[O-])ccc2-c2cc(Br)c(NC(=NO)C(F)(F)F)cc21 | 29.81 |
| O=C(Nc1cccc([N+](=O)[O-])c1)c1cccc(C(=O)Nc2cccc([N+](=O)[O-])c2)c1 | -10.43 |
| CCC1(CC)C(=O)NC(=S)N=C1N | 23.58 |
| N#Cc1n[nH]c2nc[nH]c(=O)c12 | 8.85 |
| Nc1nc(N)c(/C=N/c2ccc(Br)cc2)c(Nc2ccc(Br)cc2)n1 | 10.52 |
| [O-][n+]1nc2ccccc2c2ccccc21 | -12.86 |
| C=CCOc1ccc(S(C)(=O)=O)cc1 | 9.23 |
| C(COC1CC2CC1C1C2CC2OC21)OC1CC2CC1C1C2CC2OC21 (centres undefined) | 24.67 |
| CC(=O)NCCCOc1ccc([N+](=O)[O-])cc1Cl | 11.7 |
| CC1=CC(C)(C(Cl)(Cl)Cl)C(C)=C/C1=N/O (centres undefined) | 18.35 |
| O=C(O)c1ccc(N2CCCCC2)cc1O | 11.6 |
| Oc1ccc(-c2nc3ccccc3s2)c(O)c1 | 3.79 |
| c1ccc(-c2cn3ccccc3n2)cc1 | 24.11 |
| CC(=O)Nc1ccc(S(=O)(=O)N/N=c2/sc3ccccc3n2C)cc1N | 23.99 |

From ChEMBL document CHEMBL4296182, “CO-ADD screening of NIH NCI Diversity Set V”
